In the supplement of paper PMC3334620:
Whole data set: some 33,000 sequences, median “E-score (-0.5 to 0.5)” near -0.0014, cut for the highest 2% near 0.25. This is one part of the list.

Molecular target: T1, Cad1 (UniProt P24813)
T1 sequence: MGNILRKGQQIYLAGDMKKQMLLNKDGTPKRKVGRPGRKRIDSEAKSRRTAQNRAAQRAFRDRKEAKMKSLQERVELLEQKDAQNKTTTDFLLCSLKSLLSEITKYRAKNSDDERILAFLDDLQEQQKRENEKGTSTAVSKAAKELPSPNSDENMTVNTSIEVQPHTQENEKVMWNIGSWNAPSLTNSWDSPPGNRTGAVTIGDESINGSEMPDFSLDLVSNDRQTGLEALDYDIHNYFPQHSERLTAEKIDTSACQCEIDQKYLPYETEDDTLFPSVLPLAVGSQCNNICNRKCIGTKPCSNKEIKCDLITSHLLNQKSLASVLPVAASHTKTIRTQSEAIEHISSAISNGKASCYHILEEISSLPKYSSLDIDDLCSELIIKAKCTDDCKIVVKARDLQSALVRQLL
Assay: PBM E-score (8-mer binding enrichment) (E-score (-0.5 to 0.5)); higher = stronger / more preferred TF binding
Conditions: protein concentration: 100 nM; construct: GST-full length
How it was run: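 Bound GST-tagged yeast transcription factors, applied at about 100-200 nM to double-stranded universal all-10-mer Agilent arrays, were detected with fluorescent anti-GST. Scans were normalised with masliner. A modified Wilcoxon-Mann-Whitney statistic, the E-score, was assigned to each ungapped eight-base word pooled with its reverse complement by the Universal PBM Analysis Suite.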

Point of comparison: CCGAGCCC, “PBM E-score” value -0.263. Against it:
- TACCGCAA — higher, 0.209
- CCTCTGAG — higher, -0.182
- CCCCCAAA — higher, -0.251
- ATGCCCCG — higher, -0.0614
- AGAAACGA — higher, -0.0254
- ACATCCCC — higher, -0.105
- ACACGTTG — higher, -0.0714
- AAGCGGAG — higher, -0.153
- CCCATCTC — higher, -0.0949
- CTCCGTAA — higher, -0.0966
- CGCGACAG — higher, 0.0208
- CGCACAGA — higher, 0.0159
- GGATAACC — higher, -0.0327
- CTCGAGAG — higher, 0.0431
- AAGTTATC — higher, 0.153
- CGTTTCCC — higher, -0.117
- CCTACTCA — higher, 0.058
- AATGTACC — higher, -0.12
- TGAACTAA — higher, -0.063
- AGCCCCTA — higher, -0.105
- GAGGCCCA — lower, -0.3
- GTAGGAGA — higher, -0.124
- AAAGACAG — higher, 0.161
- GGCATAAA — higher, 0.00764
- CCCAGTAG — higher, -0.0815
- ACAGTGAA — higher, 0.0694
- GACCTGAC — higher, -0.044
- AGAGGGCG — higher, -0.137
- GCGGCAGA — higher, -0.0716
- CGAAAGGC — higher, -0.067
- GACAGGCC — higher, 0.237
- CCCTACCA — higher, -0.103
- CTACTGTA — higher, -0.0464
- TGGTCTAA — higher, -0.208
- AAAATTGA — higher, 0.104
- AGTTTGCC — higher, -0.0402
- ATAGTTAA — higher, 0.114
- CGCCGGTC — higher, 0.0454
- CGAAGCGC — higher, -0.00786
- TACTCTCA — higher, 0.0305
- GATTGTGA — higher, 0.138
- GACAGCTC — higher, -0.16
- GAAAGGAC — higher, -0.0895
- GTTGAGCA — higher, 0.139
- CGAGCTAG — higher, -0.0498
- ATGACAAA — higher, 0.414
- AATTGGCT — higher, 0.153
- CGTTTAAC — higher, 0.138
- ACTAAACT — higher, 0.028
- ACCCGTTC — higher, -0.0216
- CCTGAGAG — higher, -0.184
- AAGCCACC — higher, -0.258
- CCCAACGG — higher, -0.129
- ATCGCGAC — higher, 0.195
- AGTTCGCA — higher, 0.0914
- AACCGCAT — higher, 0
- CGAAGGCG — higher, -0.0563
- GTGTCATA — higher, 0.15
- ATCTAACC — higher, -0.0333
- AGAGGACA — higher, -0.107
- GTCACAAA — higher, -0.0316
- AATTCTCT — higher, -0.169
- CCCCGGAG — higher, -0.2
- AAGGCGCT — higher, -0.0149
- CGCTGCAA — higher, 0.113
- CAGTTTGA — higher, 0.0132
- ACACCTGT — higher, -0.0438
- GCCGCTCC — lower, -0.335
- CGCTGACG — higher, 0.0393
- TATGTGCA — higher, -0.0413
- TATAAACA — higher, 0.171
- GCATCAGA — higher, 0.14
- GTACCCTA — higher, -0.134
- AACGTCTT — higher, -0.0534
- GTCTGCCA — higher, 0.00273
- ACGAAACA — higher, 0.192
- AAATTAAA — higher, 0.257
- ACTGGCCA — higher, 0.0793
- GTCTCCGA — higher, 0.0599
- AATCTGCC — higher, -0.0433
- CAGAACTA — higher, 0.0111
- CCCAACCC — higher, -0.0388
- ACGCCACT — higher, -0.0112
- TAAGCGGA — higher, 0.138
- CGTTAGCC — higher, 0.0683
- AGCTACCG — higher, -0.0882
- AGTGTACG — higher, -0.022
- ATCCAATA — higher, 0.129
- AAATAGGA — higher, 0.18
- AGAGGGTA — higher, -0.198
- AACTGCTG — higher, -0.0149
- CGCAGCCG — higher, -0.0614
- CCGTTCTC — higher, -0.0492
- CGCTCAAA — higher, 0.0635
- GATAATTA — higher, 0.297
- CACTGACG — higher, -0.0752
- CAAAAGCG — higher, 0.0683
- ACAAAACT — higher, 0.21
- GGAATTCA — higher, 0.0713
- CTTGGCAA — higher, -0.00352
- CAATGCTG — higher, -0.0307
- GGAGTACA — higher, -0.15
- CACGGGGG — lower, -0.395
- TGACCTCA — higher, -0.169
- CGACAAAC — higher, 0.00348
- AATTCAGA — higher, 0.137
- CAGATCTG — higher, 0.113
- AATTAAGT — higher, 0.181
- GGCACGAA — higher, -0.0351
- CGTCGTAC — higher, 0.0283
- ACTGGAGC — lower, -0.309
- CCAGCAGA — higher, -0.0706
- CTGCAAGC — higher, -0.111
- CTGATCAA — higher, -0.00216
- CATCGGAG — higher, -0.181
- GTGGGTGA — higher, 0.0388
- GAAACCGA — higher, -0.0183
- ACTGATGA — higher, 0.103
- CCTCAATC — higher, 0.0973
- ACATAATA — higher, 0.178
- CCAAAAGG — higher, -0.175
- GTTGATCA — higher, 0.22
- GAATAGAC — higher, -0.0164
- ACAGTGTG — higher, 0.00567
- AGCGTGTA — higher, 0.0881
- AATCTAGG — higher, 0.00096
- GTCGTATA — higher, 0.0209
- AAGGAGCT — lower, -0.283
- CTACATGC — higher, -0.056
- AATGCCAC — higher, -0.204
- ACTTGGAA — higher, -0.116
- ATCTGGCA — higher, 0.0573
- CCAGACGA — higher, -0.138
- ACGGCAAG — higher, 0.0783
- AAACTTCG — higher, 0.142
- AACAGACG — higher, -0.0831
- GCAAAGAC — higher, 0.0345
- ACAATAGT — higher, 0.109
- AAGAATAA — higher, 0.146
- ACATCGGC — higher, 0.0889
- GCATTCAC — higher, 0.0305
- ATCTCATG — higher, 0.186
- CCTTGTCG — higher, -0.0826
- GGGACATA — higher, -0.0175
- AGGGCTCC — lower, -0.295
- AGTTGGTA — higher, 0.222
- GCGACCCC — higher, -0.241
- ACTTGGCG — higher, -0.202
- CGAAAGCG — higher, -0.0744
- AACTCAAG — higher, 0.0044
- ACCAGAGC — higher, 0.0352
- AATGGAAC — higher, 0.207
- AAGAATAG — higher, 0.0296
- CAGCTCAG — higher, -0.0398
- TGATCGAA — higher, -0.0236
- GTCGGCGA — higher, -0.07
- TATGCCGA — higher, 0.0059
- AATGGTGT — higher, 0.0603
- ATATTTCC — higher, 0.00155
- CCTGTCCC — higher, -0.207
- TAACGATA — higher, 0.261
- CGTGTCCA — higher, -0.132
- AGAACCTG — higher, 0.0251
- ATGTCGTA — higher, -0.0186
- GATTAAAC — higher, 0.0432
- ACCAAGTG — higher, -0.225
- AGGGCGGA — higher, -0.192
- AGGGACTC — lower, -0.314
- GGTACTCA — higher, -0.0607
- ATAGCGAT — higher, 0.0789
- GGTCGAAA — higher, -0.176
